From US9212140B2, “(5s,8s)-3-(4′-chlor-3′-fluor-4-methlybiphenyl-3-yl)-4-hydroxy-8-methoxy-1-azaspiro[4.5] dec-3-en-2-one (compound A) for treatment” (Bayer Intellectual Property GmbH, priority 2011, dated 2015)
At least one structure is not confirmed: it was looked up by name or label, or the drawing left a doubt.

Test system: human MCF-7 cells
Test: MCF-7 breast cancer xenograft model
Format: in vivo, female nude mice (NMRI nu/nu)
Conditions: MCF-7 xenograft, summary statement
Description: Xenograft models in immunosuppressed mice were used to determine the antitumour activity in living organisms.
Various xenograft models in which the test substances were administered in their MTD and in lower doses were then used to determine the antitumour activity. In addition to various other models, use was made primarily of the breast cancer model with hormone-dependent human MCF-7 cells in female nude mice (NMRI-nude (nu/nu) mice, Taconic M&B A/S). To this end, on the day prior to the implantation of the tumour cells, a pellet for releasing oestrogen (17β-oestradiol 0.36 mg, release over 60 days) was administered subcutaneously to the mice. […] The therapy was then continued until an average tumour size of 120 mm^2 had been reached in the control group, which had only been given the vehicle of the test substance, or in one of the treatment groups, with tumour area and body weight being measured 2-3 times per week. […]
The T/C value was calculated as primary success parameter either using the effect on the tumour weight or using the effect on the tumour area: mean tumour weight/area in the treatment group divided by mean of the tumour weight/area in the vehicle group. […]
For the statistical evaluation of the experiment, the non-parametric ANOVA test was used for the T/C values based on the tumour area, since there was no normal distribution of the measured values. […]

CO[C@H]1CC[C@]2(CC1)NC(=O)C(c1cc(-c3ccc(Cl)cc3)ccc1C)=C2O [Comparative Example C.1, (5s,8s)-3-(4′-chloro-4-methylbiphenyl-3-yl)-4-hydroxy-8-methoxy-1-azaspiro[4.5]dec-3-en-2-one]
antitumoral efficacy (in words): no antitumoral efficacy
antitumoral efficacy (in words) (listed as Example I-1-a-16 of WO99/48869): ineffective
